# Percent effect of library compounds

The values are deposited in ChEMBL (CHEMBL3988442, “University of Dundee, Small-Polar-MMV Screening Library” (2021)).

Values are the deposited “Percent Effect”, in %. How 0% and 100% were set is not recorded. Most values in the screen are low, and negative values occur. The compounds are a random part of those screened. Two or more numbers in one place are separate tests of the same structure; such repeats can differ widely.

A: 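Phenotypic screen: M. tuberculosis growth, cholesterol and DPPC medium, 4 days; the read-out is not stated. Tested at 50 µM. The record gives no direction; compounds that gave an IC50 in retests scored well above the rest, so higher reads as more growth inhibition. Size under these conditions: about 69,000 compounds, about 370 of them at 50% or above in at least one test.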
B: 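Whole-cell growth test on Mycobacterium tuberculosis, read after 3 days in glucose-containing 7H9 medium; the read-out is not stated. Concentration: 50 µM. Direction is inferred from retests: higher values go with more growth inhibition. Of about 69,000 compounds tested this way, about 760 (1.1%) reached 50% or more in at least one test.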

SMILES | A | B
c1nc2c(c(NC3COC4(CCCC4)C3)n1)CCNCC2 (centres unmarked) | -1.832 | 7.078
CCS(=O)(=O)NC(CCSC)C(=O)Nc1ccc(C)cc1C (centres unmarked) | -27.27 | -35.59
FC1(F)CCN(Cc2cccnc2)CC12CCN(c1ccccc1)C2.O=C(O)C(F)(F)F.O=C(O)C(F)(F)F.O=C(O)C(F)(F)F (centres unmarked) | 69.67 | 79.68
O=C(O)C(F)(F)F.[H][C@@]12CCN(CC3CCOCC3)[C@@]1([H])CCN2C(=O)c1cccc(Cl)c1 | -3.023 | 19.63
CNC(=O)C1CCCN(C(=O)C2CCC2)C1 (centres unmarked) | -8.392 | -0.9848
COc1ccc(N2CCN(Cc3noc(CC(C)C)n3)C(C)C2=O)cc1 (centres unmarked) | -3.022 | 16.04
Cc1cnn(C2CCCN(C(=O)Cc3c(C)nn(C)c3C)C2)c1 (centres unmarked) | -1.411 | -0.4619
CC(C)c1cc(NCC2(CO)CCCC2)ncn1 | 5.554 | 15.58
O=C(O)C(F)(F)F.[H][C@@]12COC[C@]1(CNC(=O)c1ccco1)CN(Cc1scnc1C)C2 | -10.88 and -2.41 | -20.84
CCS(=O)(=O)NC(CCSC)C(=O)Nc1cccc(C)c1C (centres unmarked) | -20.74 | -3.56
Cc1cc(C)n(CCCN(C)Cc2cn[nH]c2-c2ccc(F)cc2)n1 | 11.01 | -6.924 and 5.315
O=C(O)C(F)(F)F.[H][C@@]12OCCN(c3ncccn3)[C@@]1([H])CC[C@H]2OCCN1CCCC1 | 4.865 | -2.771 and -1.44
[H][C@]12C[C@@H](CN3CCCC3)N(C(C)C)[C@@]1([H])CCN(Cc1cnn(C)c1)C2 | -4.91 | 1.227 and 15.91
CCn1nc2c(cc1=O)CN(CC(=O)Nc1nnc(C)s1)CC2 | -4.34 | 5.022
CN(Cc1cnccn1)C(=O)Nc1cc(F)cc(N2CCCC2)c1 | -20.76 | 0.7315
Cc1cnn(CCNCC(O)COc2ccc(F)cc2)c1 (centres unmarked) | 3.772 | -41.99
CN1CCC(c2nccnc2Nc2cnccn2)CC1 | 4.824 | -1.599
O=C(CC1CC1)N1CCC2(CC1)CN(c1ncccn1)CCO2 | -10.21 | 2.052
O=C1CN(C(=O)C2CCOCC2)CCN1Cc1ccc(Cl)cc1 | 1.908 | -27.53
CN(Cc1noc2c1CCCC2)C(=O)Nc1cccc(S(N)(=O)=O)c1 | -39.85 | -1.388
CCc1c(C)nc(N)nc1NCCSCc1[nH]cnc1C | -14.57 | -18.21
O=C(O)C1(Cc2ccccc2Cl)CCN(c2ncccn2)CC1 | -2.59 | 0.07786 and -10.54
CC1c2ncc(Cn3cccn3)n2CCN1c1ncccn1.O=C(O)C(F)(F)F (centres unmarked) | -24.28 | -1.756
CCN1CCc2nc(N3CCOCC3)nc(NC(C)C)c2C1 | 6.151 and -9.387 | 9.417
[H][C@@]12CCN(C(=O)c3cccc(F)c3)[C@]1([H])CN(C(=O)c1ccsc1)C2 | 22.89 | -7.125
Cc1ccc(C2(O)CCN(Cc3nc(C)n4ccccc34)CC2)nc1 | 18.58 | 7.446
[H][C@]12CC[C@]([H])(CN(C(=O)c3cccnc3)C1)N(Cc1cccc(Cl)c1F)C2 | -28.99 | 1.392 and -7.502
[H][C@]12CC[C@]([H])(CN(Cc3cscn3)C1)N(C(=O)C1(C#N)CCOCC1)C2 | -45.22 | -45.72
O=C(c1cccnc1)N1CCN(CC2CC2)c2ncccc2C1 | 12.83 | -7.301
Cc1cc(=O)n2nc(Oc3ccc(Cl)c(C)c3)sc2n1 | -1.999 | 13.93
O=C(O)C(F)(F)F.[H][C@@]12COC[C@@H](C(=O)N3CCCO3)[C@]1([H])CN(C1CCCC1)C2 | 3.771 | -3.434 and 13.49
CC(C)c1cc(NC(=O)Cn2cnc3ccccc3c2=O)[nH]n1 | -11.15 | 3.098
[H][C@]12CN(Cc3ccco3)C[C@@]1([H])OCCN(S(=O)(=O)C1CC1)C2 | -4.001 | 35.33 and 2.175
CC(NCCn1cccn1)c1ccccc1Cl (centres unmarked) | -19.47 | -34.12
COc1ccc(CN2CC(O)CN(C(=O)CC(C)C)CC2=O)cc1 (centres unmarked) | -15.36 | -21.14
COc1ccc(-c2cc(C3(O)CCCC3)on2)cc1 | -3.066 | 16.41 and -1.78
O=C1CCC(=O)N1CCn1nnc(-c2ccc(Br)cc2)n1 | -5.68 | 5.749
CC(=O)N1CCCC1C(=O)NCCOc1cccc(F)c1 (centres unmarked) | -24.64 | -10.96
CN(CCO)C[C@@H]1CN(C(=O)Cc2ccc3ccccc3c2)C[C@@H]1CO | -39.42 | -16.18
O=C(CCc1ccccc1)NCC1CCN(Cc2cccs2)CC1 | 16.75 | 26.18
CN(Cc1ncnn1C)C(=O)c1ccccc1NCc1ccccc1 | 10.92 | 10.94 and 3.244
CCc1nc2c(c(NC3CC3)n1)CCN(C(=O)N1CCN(C)CC1)CC2 | 8.678 | -6.311
OCCc1cc(CC2(NCc3ccncc3)COC2)no1 | -1.598 | -4.481 and -13.98
CCCN(CC)C(=O)c1ncn2c1CN(C)S(=O)(=O)c1ccccc1-2 | -14.39 | -7.276
O=C(NCCOc1ccccc1)c1ccc2c(c1)C(=O)NC2=O | -13.45 | -29.4
CCOCCC(=O)N1Cc2cnc(-c3ccccc3)nc2C1 | 15.34 | 4.403
Cn1cc(CN2CCC3(CC2)CCN(Cc2ccccn2)CC3)cn1 | -15.72 | -7.095
Cc1nn(C)c2nc(O)cc(C(F)(F)C(F)(F)F)c12 | 13.5 | 29.16
CCCN(CC1COc2ccccc2O1)C(=O)CCN1C(=O)CCC1=O (centres unmarked) | -3.014 | 15.23 and 2.586
O=C(O)C(F)(F)F.O=C(O)C(F)(F)F.c1cc(CN2CCc3ncc(CN4CCOCC4)n3CC2)cs1 | -21.75 | -27.09
O=C(CCC1CCCO1)NCCN1CCCCC1 (centres unmarked) | -4.24 | -27.28 and -4.333
Cc1ccc(CN2CCCC3(CCCN3S(C)(=O)=O)C2)s1.O=C(O)C(F)(F)F (centres unmarked) | 6.001 | 0.7635
CCc1ncnc(N2CCOCC2CCO)c1F (centres unmarked) | -23.62 | 0.4851
Cc1nccc(N[C@H]2CN(C(=O)C3(C#N)CCOCC3)C[C@@H]2C(C)C)n1 | -19.3 | -11.94 and -8.451
CCN(CC)S(=O)(=O)N1CCCC1c1cccc(Nc2ncc(C)s2)n1 (centres unmarked) | -10.4 | -4.286
Cc1ccncc1-n1cc(CCO)cn1 | 15.02 | 6.821
CC(NC1(CNC(=O)CC(C)(C)C)CCOCC1)c1ccccc1 (centres unmarked) | 4.067 | 16.03
Cc1cc(C)n(CCC(=O)N2CCC(c3nc(C)no3)CC2)n1 | 8.493 | 26.33
CN(C)c1cnnc(N2CCN(C(=O)CCC3CCCCC3)CC2)c1 | 0.7109 | 5.641 and 12.95
O=C(O)C(F)(F)F.O=C(O)C(F)(F)F.[H][C@@]12COC[C@@H](CC(=O)N3CCCC3)[C@]1([H])CN(Cc1cccnc1)C2 | 11.32 | -1.602
CN(C)S(=O)(=O)N1CCC(Oc2ccc(C#N)cn2)CC1 | 2.224 | -1.88
Cc1cc(-c2cnn(CCNC(=O)c3cc[nH]n3)c2C2CC2)on1 | -14.47 | -12.97
CCN1CCC(CC(=O)N(C)CC(=O)c2ccc(O)cc2)CC1 | 16.88 | -2.276 and -1.394
CC1(C)CC(=O)c2cnc3nc(N4CCCCC4)nc(O)c3c2C1 | 10.26 | 5.742 and -4.226
Cc1ccc(F)c(NS(=O)(=O)c2cc(C(=O)O)oc2C)c1 | -8.524 | 17.27
[H][C@@]12CS(=O)(=O)C[C@]1([H])N(C(=O)c1cc[nH]n1)CCN2CCC | -11.58 | -6.326
CC(=O)N1CCC(C(=O)Nc2nnc(C(F)(F)F)[nH]2)CC1 | -7.805 | 5.131 and -3.125
CCc1n[nH]c(C2CN(C(=O)c3cc4c(s3)CCCC4)CCO2)n1 (centres unmarked) | -11.88 | -4.957
c1ccc(-c2nnc(N3CCCC4(CCOC4)C3)s2)cc1 (centres unmarked) | 1.114 | -42.8
CCOc1cc(/C=C/c2ncc(C(=O)O)s2)cc(Br)c1OC | -26.87 | -22.43
CCc1[nH]ncc1C(=O)N1CCCC(n2ccnc2C)C1 (centres unmarked) | -4.053 | 11.04
CCCC1CN(CC(C)C)C(=O)c2cccnc2O1 (centres unmarked) | -61.39 | -54.09

For reference, 4 entries once more:

- Cc1cc(-c2cnn(CCNC(=O)c3cc[nH]n3)c2C2CC2)on1 | A: -14.47%; B: -12.97%
- CN(Cc1noc2c1CCCC2)C(=O)Nc1cccc(S(N)(=O)=O)c1 | A: -39.85%; B: -1.388%
- O=C(NCCOc1ccccc1)c1ccc2c(c1)C(=O)NC2=O | A: -13.45%; B: -29.4%
- CN(Cc1cnccn1)C(=O)Nc1cc(F)cc(N2CCCC2)c1 | A: -20.76%; B: 0.7315%